Data reported in the supplement of paper PMC10849652.
This is one part of the list.

By UniProt entry, the sequences of proteins in these tests, tags left out. Where a name states a change or a piece, a line headed by the entry shows the natural chain unless it says otherwise.
UniProt Q9BZZ5: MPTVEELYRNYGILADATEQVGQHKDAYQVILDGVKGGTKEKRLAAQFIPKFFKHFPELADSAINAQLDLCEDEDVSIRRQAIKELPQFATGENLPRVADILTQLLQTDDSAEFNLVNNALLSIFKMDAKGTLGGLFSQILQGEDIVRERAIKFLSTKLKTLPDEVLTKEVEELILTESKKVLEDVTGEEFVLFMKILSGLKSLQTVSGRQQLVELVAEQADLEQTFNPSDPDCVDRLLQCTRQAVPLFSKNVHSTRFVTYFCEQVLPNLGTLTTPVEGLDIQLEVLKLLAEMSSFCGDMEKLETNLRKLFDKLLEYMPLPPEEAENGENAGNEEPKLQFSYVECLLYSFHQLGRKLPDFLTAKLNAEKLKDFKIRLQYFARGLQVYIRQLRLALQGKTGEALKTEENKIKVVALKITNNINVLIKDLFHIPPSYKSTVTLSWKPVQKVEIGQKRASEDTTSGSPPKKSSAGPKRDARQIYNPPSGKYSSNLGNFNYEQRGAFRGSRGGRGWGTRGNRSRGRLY
UniProt P16157: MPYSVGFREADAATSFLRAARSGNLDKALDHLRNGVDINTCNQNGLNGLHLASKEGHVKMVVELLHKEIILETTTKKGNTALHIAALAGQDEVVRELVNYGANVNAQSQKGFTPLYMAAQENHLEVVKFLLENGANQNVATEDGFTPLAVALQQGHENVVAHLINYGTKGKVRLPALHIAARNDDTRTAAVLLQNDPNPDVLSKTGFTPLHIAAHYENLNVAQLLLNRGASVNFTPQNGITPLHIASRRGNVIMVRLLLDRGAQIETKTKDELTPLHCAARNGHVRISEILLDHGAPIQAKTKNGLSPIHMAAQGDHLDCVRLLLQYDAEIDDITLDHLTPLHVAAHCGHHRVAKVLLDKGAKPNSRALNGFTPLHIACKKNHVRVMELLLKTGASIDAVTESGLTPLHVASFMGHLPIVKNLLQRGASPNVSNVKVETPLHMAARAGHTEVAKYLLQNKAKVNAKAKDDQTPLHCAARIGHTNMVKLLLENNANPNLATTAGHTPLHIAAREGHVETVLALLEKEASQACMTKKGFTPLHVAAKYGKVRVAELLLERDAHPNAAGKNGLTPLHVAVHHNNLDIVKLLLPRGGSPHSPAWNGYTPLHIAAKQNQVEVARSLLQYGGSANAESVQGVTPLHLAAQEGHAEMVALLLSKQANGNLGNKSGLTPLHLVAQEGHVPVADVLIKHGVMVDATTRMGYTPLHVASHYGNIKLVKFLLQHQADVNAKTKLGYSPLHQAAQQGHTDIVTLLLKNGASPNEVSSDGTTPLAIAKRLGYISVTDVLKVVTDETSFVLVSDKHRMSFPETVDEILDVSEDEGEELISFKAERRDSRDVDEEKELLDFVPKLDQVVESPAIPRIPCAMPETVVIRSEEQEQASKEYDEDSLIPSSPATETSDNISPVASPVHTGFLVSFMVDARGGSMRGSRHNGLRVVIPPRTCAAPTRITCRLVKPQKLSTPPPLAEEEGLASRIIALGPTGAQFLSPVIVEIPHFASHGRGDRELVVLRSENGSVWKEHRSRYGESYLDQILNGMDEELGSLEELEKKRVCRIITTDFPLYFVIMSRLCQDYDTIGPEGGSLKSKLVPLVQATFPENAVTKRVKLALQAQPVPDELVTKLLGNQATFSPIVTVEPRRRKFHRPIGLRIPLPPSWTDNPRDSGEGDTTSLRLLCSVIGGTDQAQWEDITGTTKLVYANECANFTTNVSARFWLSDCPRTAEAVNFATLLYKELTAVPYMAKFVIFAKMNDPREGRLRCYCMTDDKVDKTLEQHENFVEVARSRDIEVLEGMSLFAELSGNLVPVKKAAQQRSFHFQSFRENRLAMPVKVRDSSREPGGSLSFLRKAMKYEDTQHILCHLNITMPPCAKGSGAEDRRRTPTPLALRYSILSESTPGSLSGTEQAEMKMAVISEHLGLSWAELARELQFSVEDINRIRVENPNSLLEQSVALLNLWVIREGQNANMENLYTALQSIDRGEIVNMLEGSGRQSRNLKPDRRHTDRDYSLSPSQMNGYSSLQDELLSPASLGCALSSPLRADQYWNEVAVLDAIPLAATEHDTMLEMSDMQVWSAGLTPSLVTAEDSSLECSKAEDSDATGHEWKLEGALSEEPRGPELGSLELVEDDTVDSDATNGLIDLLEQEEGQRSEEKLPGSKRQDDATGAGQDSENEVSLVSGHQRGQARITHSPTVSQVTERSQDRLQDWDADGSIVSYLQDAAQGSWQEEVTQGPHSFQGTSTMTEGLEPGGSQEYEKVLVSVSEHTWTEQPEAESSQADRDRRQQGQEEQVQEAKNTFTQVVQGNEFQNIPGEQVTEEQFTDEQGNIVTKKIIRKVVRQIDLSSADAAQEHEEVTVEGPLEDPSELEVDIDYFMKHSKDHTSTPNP
UniProt Q13795: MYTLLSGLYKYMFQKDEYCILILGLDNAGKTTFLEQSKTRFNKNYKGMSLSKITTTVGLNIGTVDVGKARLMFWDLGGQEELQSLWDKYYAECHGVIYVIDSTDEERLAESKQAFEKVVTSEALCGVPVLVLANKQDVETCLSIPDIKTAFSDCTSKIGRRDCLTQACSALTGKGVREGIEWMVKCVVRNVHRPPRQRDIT
UniProt P63010: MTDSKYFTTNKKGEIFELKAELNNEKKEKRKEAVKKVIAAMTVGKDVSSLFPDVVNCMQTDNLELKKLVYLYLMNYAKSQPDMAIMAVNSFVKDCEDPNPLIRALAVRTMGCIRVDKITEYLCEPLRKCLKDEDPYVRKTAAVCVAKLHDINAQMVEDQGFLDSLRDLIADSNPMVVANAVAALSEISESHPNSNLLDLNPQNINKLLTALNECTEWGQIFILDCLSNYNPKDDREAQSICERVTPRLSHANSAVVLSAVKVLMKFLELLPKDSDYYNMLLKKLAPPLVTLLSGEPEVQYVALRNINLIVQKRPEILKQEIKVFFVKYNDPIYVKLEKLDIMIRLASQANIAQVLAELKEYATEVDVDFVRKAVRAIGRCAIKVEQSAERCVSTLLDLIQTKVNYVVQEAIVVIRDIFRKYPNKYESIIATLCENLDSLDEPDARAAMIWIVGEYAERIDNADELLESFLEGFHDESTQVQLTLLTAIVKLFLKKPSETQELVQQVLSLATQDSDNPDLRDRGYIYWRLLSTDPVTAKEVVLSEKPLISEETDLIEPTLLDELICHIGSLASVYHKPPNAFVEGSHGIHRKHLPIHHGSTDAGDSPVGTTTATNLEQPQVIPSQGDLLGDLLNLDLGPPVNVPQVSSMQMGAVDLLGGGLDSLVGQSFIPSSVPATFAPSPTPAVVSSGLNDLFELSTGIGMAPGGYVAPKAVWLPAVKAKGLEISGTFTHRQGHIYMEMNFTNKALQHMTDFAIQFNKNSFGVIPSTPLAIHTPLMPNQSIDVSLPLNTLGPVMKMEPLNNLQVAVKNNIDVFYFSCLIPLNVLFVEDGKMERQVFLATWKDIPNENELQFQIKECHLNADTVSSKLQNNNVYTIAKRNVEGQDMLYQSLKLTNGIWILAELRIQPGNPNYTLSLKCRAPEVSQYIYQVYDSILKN
UniProt Q6NXT1: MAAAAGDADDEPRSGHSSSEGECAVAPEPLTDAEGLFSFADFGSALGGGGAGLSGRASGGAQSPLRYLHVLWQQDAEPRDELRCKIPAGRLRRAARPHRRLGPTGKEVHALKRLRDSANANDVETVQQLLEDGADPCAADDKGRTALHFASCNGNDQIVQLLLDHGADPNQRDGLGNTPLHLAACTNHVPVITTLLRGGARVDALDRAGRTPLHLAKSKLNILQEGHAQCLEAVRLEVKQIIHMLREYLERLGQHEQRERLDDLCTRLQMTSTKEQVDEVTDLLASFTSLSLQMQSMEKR
UniProt P48444: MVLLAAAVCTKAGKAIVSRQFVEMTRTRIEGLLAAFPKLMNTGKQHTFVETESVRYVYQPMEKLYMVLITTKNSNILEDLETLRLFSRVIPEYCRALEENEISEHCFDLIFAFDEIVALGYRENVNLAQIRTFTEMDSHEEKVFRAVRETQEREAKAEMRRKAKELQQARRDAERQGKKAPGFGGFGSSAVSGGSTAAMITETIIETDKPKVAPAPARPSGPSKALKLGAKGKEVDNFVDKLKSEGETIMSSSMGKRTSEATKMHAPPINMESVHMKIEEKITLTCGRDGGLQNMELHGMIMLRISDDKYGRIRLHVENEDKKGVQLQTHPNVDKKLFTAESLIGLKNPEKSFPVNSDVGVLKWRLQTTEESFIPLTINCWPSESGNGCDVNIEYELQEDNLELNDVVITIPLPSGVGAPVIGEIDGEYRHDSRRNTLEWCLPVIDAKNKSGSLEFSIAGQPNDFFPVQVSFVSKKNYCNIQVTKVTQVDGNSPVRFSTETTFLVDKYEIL
UniProt Q9Y4X5: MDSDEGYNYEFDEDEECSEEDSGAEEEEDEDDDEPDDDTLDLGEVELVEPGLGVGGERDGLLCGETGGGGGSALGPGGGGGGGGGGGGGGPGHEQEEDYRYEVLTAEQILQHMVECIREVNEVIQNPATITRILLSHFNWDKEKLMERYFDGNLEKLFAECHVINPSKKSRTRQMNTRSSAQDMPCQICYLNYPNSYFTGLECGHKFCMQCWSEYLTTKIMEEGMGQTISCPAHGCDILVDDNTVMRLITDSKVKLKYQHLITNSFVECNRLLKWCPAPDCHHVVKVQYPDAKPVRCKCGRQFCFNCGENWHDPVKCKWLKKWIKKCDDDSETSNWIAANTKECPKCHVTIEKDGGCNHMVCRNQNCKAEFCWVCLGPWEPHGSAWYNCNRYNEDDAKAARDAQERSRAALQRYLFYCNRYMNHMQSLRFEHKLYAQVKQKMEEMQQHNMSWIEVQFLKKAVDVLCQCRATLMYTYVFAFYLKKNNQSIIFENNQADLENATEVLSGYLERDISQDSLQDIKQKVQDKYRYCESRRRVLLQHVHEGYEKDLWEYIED
UniProt Q9UJX5, whole entry, looked up: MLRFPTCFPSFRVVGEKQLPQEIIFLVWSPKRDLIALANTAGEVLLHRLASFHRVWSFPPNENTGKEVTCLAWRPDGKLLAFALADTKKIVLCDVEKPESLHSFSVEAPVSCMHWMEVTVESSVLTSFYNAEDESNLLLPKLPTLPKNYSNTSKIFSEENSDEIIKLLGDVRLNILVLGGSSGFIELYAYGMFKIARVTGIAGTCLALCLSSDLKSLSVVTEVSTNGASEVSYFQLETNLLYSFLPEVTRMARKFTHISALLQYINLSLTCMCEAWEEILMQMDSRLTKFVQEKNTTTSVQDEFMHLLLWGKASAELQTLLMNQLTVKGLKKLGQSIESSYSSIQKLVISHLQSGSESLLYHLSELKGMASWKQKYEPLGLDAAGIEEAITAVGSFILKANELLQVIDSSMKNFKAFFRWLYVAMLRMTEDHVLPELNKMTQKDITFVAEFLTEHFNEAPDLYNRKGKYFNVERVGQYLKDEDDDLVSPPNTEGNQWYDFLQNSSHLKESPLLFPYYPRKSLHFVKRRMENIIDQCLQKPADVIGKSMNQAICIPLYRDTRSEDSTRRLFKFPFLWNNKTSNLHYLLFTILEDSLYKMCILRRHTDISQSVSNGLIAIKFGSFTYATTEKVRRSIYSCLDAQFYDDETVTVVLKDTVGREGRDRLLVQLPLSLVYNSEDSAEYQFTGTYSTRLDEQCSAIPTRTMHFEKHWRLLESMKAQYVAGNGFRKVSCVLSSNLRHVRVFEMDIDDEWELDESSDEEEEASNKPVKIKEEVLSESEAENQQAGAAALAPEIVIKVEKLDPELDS
UniProt P84077: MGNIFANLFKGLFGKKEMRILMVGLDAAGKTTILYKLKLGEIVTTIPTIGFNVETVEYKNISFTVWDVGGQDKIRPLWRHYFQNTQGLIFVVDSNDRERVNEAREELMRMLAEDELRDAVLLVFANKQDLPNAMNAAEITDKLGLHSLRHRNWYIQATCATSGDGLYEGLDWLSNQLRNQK
UniProt Q07960: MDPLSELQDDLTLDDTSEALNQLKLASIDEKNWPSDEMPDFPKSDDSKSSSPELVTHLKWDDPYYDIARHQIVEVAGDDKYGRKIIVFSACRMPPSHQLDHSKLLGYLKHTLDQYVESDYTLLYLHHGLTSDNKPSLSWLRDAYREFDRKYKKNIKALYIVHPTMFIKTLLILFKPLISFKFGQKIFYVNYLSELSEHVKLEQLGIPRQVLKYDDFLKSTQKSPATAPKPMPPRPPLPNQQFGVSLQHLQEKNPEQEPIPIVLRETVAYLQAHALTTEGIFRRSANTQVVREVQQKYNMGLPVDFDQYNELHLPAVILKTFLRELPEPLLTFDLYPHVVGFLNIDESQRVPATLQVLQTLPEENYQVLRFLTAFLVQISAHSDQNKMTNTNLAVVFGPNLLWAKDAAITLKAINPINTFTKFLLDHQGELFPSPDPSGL
UniProt P02654: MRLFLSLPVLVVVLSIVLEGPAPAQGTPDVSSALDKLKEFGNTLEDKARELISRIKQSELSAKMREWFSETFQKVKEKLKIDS

Experiments:
Test in all cases: log2 fold change, soluble protein after heating vs DMSO (PISA); higher = thermal stabilisation; K562 cells, 10 uM, 30 min; active = over 0.2 and 3.5 SD of the protein, either way, in both replicates (recomputed)
bafetinib = compound: Cc1ccc(NC(=O)c2ccc(CN3CC[C@H](N(C)C)C3)c(C(F)(F)F)c2)cc1Nc1nccc(-c2cncnc2)n1 [bafetinib]
Outline: (§1)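 For each measurement, 10 μM compound was applied for 30 min to K562 cells at 2×10^6 cells/mL. Aliquots were heated for 3 min across 48°C-58°C, pooled, and extracted in PBS with 0.5% NP-40 at 4°C; the supernatant after 21,000xg for 90 min was soluble protein. This was quantified by TMTpro 16plex LC-MS/MS with channel sums equalised, and thermal stability was reported relative to control samples from duplicates, on a log2 fold-change scale.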

[1] = compound: Cc1cccc(CC(=O)N2CCc3c2ccc(-c2cn(C)c4ncnc(N)c24)c3F)n1
Outline: as §1

nilotinib = compound: Cc1cn(-c2cc(NC(=O)c3ccc(C)c(Nc4nccc(-c5cccnc5)n4)c3)cc(C(F)(F)F)c2)cn1 [nilotinib]
Outline: as §1

[2] = compound: Cc1nc(Nc2n[nH]c3c2CN(C(=O)N[C@H](CN(C)C)c2ccccc2)C3(C)C)c2sccc2n1
Outline: as §1

dasatinib = compound: Cc1nc(Nc2ncc(C(=O)Nc3c(C)cccc3Cl)s2)cc(N2CCN(CCO)CC2)n1 [dasatinib]
Outline: as §1

[3] = compound: Cc1ncc(-c2ccnc(Nc3ccc(S(C)(=O)=O)cc3)n2)n1C(C)C
Outline: as §1

[4] = compound: Cn1cc(-c2ccc3c(c2)CCN3C(=O)Cc2cccc(C(F)(F)F)c2)c2c(N)ncnc21
Outline: as §1

[5] = compound: Cn1cc(-c2ccc3nnc(C(F)(F)c4ccc5ncccc5c4)n3n2)cn1
Outline: as §1

tipifarnib = compound: Cn1cncc1[C@@](N)(c1ccc(Cl)cc1)c1ccc2c(c1)c(-c1cccc(Cl)c1)cc(=O)n2C [tipifarnib]
Outline: as §1

mubritinib = compound: FC(F)(F)c1ccc(/C=C/c2nc(COc3ccc(CCCCn4ccnn4)cc3)co2)cc1 [mubritinib]
Outline: as §1

Measured: log2 fold change

ANTXR2 isoform 4 (UniProt P58335)
inactive: bafetinib -0.049 | [1] -0.102 | nilotinib 0.055 | [2] -0.046 | dasatinib 0.037 | [3] 0.057 | [4] -0.002 | [5] 0.038 | tipifarnib 0.042 | mubritinib 0.048

APEH (UniProt P13798)
inactive: bafetinib -0.027 | [1] -0.034 | nilotinib -0.01 | [2] 0.009 | dasatinib 0.035 | [3] -0.006 | [4] 0.002 | [5] 0.027 | tipifarnib 0.015 | mubritinib 0.037

API5 isoform 2 (UniProt Q9BZZ5)
inactive: bafetinib -0.068 | [1] -0.075 | nilotinib -0.01 | [2] 0.001 | dasatinib -0.018 | [3] -0.06 | [4] 0.052 | [5] -0.058 | tipifarnib -0.051 | mubritinib 0.014

AP5Z1 (UniProt O43299)
inactive: bafetinib -0.334 | [1] -0.13 | nilotinib 0.007 | [2] -0.006 | dasatinib 0.046 | [3] -0.04 | [4] -0.001 | [5] 0.066 | tipifarnib 0.065 | mubritinib 0.057

APOBR (UniProt Q0VD83)
inactive: bafetinib -0.015 | [1] -0.072 | nilotinib -0.028 | [2] 0.041 | dasatinib 0.049 | [3] -0.011 | [4] 0.039 | [5] 0.01 | tipifarnib 0.027 | mubritinib -0.009

API5 (UniProt Q9BZZ5)
inactive: bafetinib -0.023 | [1] 0.006 | nilotinib -0.004 | [2] 0 | dasatinib -0.009 | [3] 0.003 | [4] 0.028 | [5] -0.002 | tipifarnib -0.006 | mubritinib 0.029

AP4E1 (UniProt Q9UPM8)
inactive: bafetinib 0.082 | [1] 0.066 | nilotinib -0.035 | [2] -0.435 | dasatinib -0.028 | [3] -0.003 | [4] -0.177 | [5] 0.011 | tipifarnib -0.162 | mubritinib 0.05

ANP32E (UniProt Q9BTT0)
inactive: bafetinib 0.04 | [1] 0.146 | nilotinib -0.061 | [2] -0.123 | dasatinib 0.053 | [3] -0.104 | [4] 0.013 | [5] 0.027 | tipifarnib 0.001 | mubritinib -0.047

ANXA11 (UniProt P50995)
inactive: bafetinib -0.023 | [1] 0.026 | nilotinib -0.031 | [2] 0.007 | dasatinib -0.098 | [3] 0.039 | [4] 0.069 | [5] 0.034 | tipifarnib -0.1 | mubritinib 0.094

ANK1 isoform 14 (UniProt P16157)
inactive: bafetinib 0.122 | [1] 0.041 | nilotinib -0.076 | [2] -0.137 | dasatinib 0.066 | [3] -0.01 | [4] -0.09 | [5] -0.14 | tipifarnib -0.01 | mubritinib -0.111

ARFRP1 (UniProt Q13795)
active: [1] 0.327
inactive: bafetinib 0.025 | nilotinib -0.061 | [2] -0.014 | dasatinib -0.017 | [3] 0.112 | [4] 0.11 | [5] -0.003 | tipifarnib -0.069 | mubritinib -0.019

ARHGAP18 (UniProt Q8N392)
inactive: bafetinib -0.005 | [1] 0.056 | nilotinib -0.092 | [2] -0.041 | dasatinib -0.233 | [3] 0.12 | [4] 0.08 | [5] 0.019 | tipifarnib -0.109 | mubritinib 0.191

ARHGDIA (UniProt P52565)
inactive: bafetinib 0.019 | [1] 0.013 | nilotinib -0.025 | [2] -0.023 | dasatinib 0 | [3] -0.004 | [4] 0.032 | [5] -0.011 | tipifarnib -0.095 | mubritinib 0.086

AP2B1 isoform 2 (UniProt P63010)
inactive: bafetinib 0.024 | [1] -0.01 | nilotinib -0.019 | [2] 0.019 | dasatinib 0.035 | [3] -0.032 | [4] -0.029 | [5] 0.004 | tipifarnib -0.014 | mubritinib -0.01

ANKRD54 (UniProt Q6NXT1)
inactive: bafetinib -0.086 | [1] 0.026 | nilotinib 0.043 | [2] 0.093 | dasatinib -0.206 | [3] -0.098 | [4] 0.004 | [5] -0.003 | tipifarnib -0.028 | mubritinib 0.051

ANKRD13A (UniProt Q8IZ07)
inactive: bafetinib 0.008 | [1] -0.039 | nilotinib 0.028 | [2] -0.08 | dasatinib -0.059 | [3] 0.16 | [4] 0.065 | [5] -0.041 | tipifarnib 0.007 | mubritinib 0.019

ARCN1 (UniProt P48444)
inactive: bafetinib -0.003 | [1] 0.023 | nilotinib -0.037 | [2] -0.025 | dasatinib -0.042 | [3] -0.01 | [4] -0.007 | [5] 0.005 | tipifarnib -0.001 | mubritinib 0.023

APOA1 (UniProt P02647)
inactive: bafetinib 0.086 | [1] -0.157 | nilotinib 0.035 | [2] -0.018 | dasatinib 0.004 | [3] 0.163 | [4] 0.261 | [5] 0.152 | tipifarnib 0.326 | mubritinib -0.145

AP2A2 isoform 2 (UniProt O94973)
inactive: bafetinib 0.02 | [1] 0.031 | nilotinib -0.027 | [2] 0.009 | dasatinib 0.062 | [3] -0.018 | [4] 0.006 | [5] -0.074 | tipifarnib -0.006 | mubritinib 0.035

ARIH1 (UniProt Q9Y4X5)
inactive: bafetinib -0.059 | [1] 0 | nilotinib -0.006 | [2] 0.019 | dasatinib -0.01 | [3] 0 | [4] -0.005 | [5] -0.041 | tipifarnib -0.062 | mubritinib 0.013

ANAPC4 isoform 3 (UniProt Q9UJX5)
inactive: bafetinib 0.043 | [1] -0.003 | nilotinib -0.013 | [2] 0.004 | dasatinib -0.005 | [3] -0.039 | [4] -0.057 | [5] -0.1 | tipifarnib 0.012 | mubritinib 0.016

ARHGAP25 isoform 4 (UniProt P42331)
inactive: bafetinib -0.035 | [1] -0.089 | nilotinib 0.28 | [2] -0.276 | dasatinib -0.421 | [3] 0.078 | [4] -0.009 | mubritinib 0.266

ANXA1 (UniProt P04083)
inactive: bafetinib 0 | [1] 0.013 | nilotinib -0.085 | [2] -0.08 | dasatinib -0.09 | [3] 0.037 | [4] 0.004 | [5] -0.013 | tipifarnib -0.096 | mubritinib 0.054

ARF1 (UniProt P84077)
inactive: bafetinib 0.004 | nilotinib 0.017 | [2] 0.018 | dasatinib -0.062 | [3] 0.071 | [4] 0.061 | [5] -0.008 | tipifarnib 0.004 | mubritinib -0.022

Reprinted at random: two records from the list, in no set order.
ANAPC4 isoform 3 (UniProt Q9UJX5)
inactive: bafetinib 0.043 | [1] -0.003 | nilotinib -0.013 | [2] 0.004 | dasatinib -0.005 | [3] -0.039 | [4] -0.057 | [5] -0.1 | tipifarnib 0.012 | mubritinib 0.016

ANXA1 (UniProt P04083)
inactive: bafetinib 0 | [1] 0.013 | nilotinib -0.085 | [2] -0.08 | dasatinib -0.09 | [3] 0.037 | [4] 0.004 | [5] -0.013 | tipifarnib -0.096 | mubritinib 0.054

Following part

APOM (UniProt O95445)
inactive: bafetinib -0.067 | [1] -0.004 | dasatinib 0.089 | [4] 0.177 | [5] -0.049 | tipifarnib -0.021 | mubritinib -0.124

ANLN (UniProt Q9NQW6)
inactive: bafetinib 0.02 | [1] 0.092 | nilotinib -0.297 | [2] 0.037 | dasatinib 0.005 | [3] -0.393 | [5] 0.137 | tipifarnib -0.09 | mubritinib 0.019

ARHGAP1 (UniProt Q07960)
inactive: bafetinib 0.001 | [1] 0.016 | nilotinib -0.019 | [2] -0.056 | dasatinib -0.101 | [3] 0.007 | [4] -0.025 | [5] -0.008 | tipifarnib -0.069 | mubritinib 0.01

ARHGAP17 (UniProt Q68EM7)
inactive: bafetinib 0.043 | [1] 0.077 | nilotinib -0.162 | [2] 0.006 | dasatinib -0.291 | [3] 0.417 | [4] -0.024 | [5] -0.002 | tipifarnib -0.182 | mubritinib -0.026

ARHGEF7 isoform 5 (UniProt Q14155)
inactive: bafetinib 0.131 | [1] 0.087 | nilotinib -0.015 | [2] -0.153 | dasatinib -0.194 | [3] -0.037 | [4] 0.048 | [5] -0.045 | tipifarnib -0.029 | mubritinib -0.039

APOC1 (UniProt P02654)
inactive: bafetinib -0.124 | [1] 0.124 | nilotinib 0.033 | [2] 0.015 | dasatinib 0.099 | [3] -0.03 | [4] 0.05 | [5] 0.186 | tipifarnib 0.098 | mubritinib -0.026
